Assay results taken from PubChem BioAssay AID1487 (National Center for Advancing Translational Sciences (NCATS), 2009).
The list shows a part of the results. The main result of the screen is listed elsewhere. These columns were measured beside it and carry no call. The list favours compounds with an active or inconclusive main result. The note in brackets gives the kind of curve behind each potency; many fits are weak.

Test: qHTS Assay for Modulators of Lamin A Splicing
Conditions: HeLa LMNA splicing GFP/RFP minigene ratio, 48 h
How it was run: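 Read-out is the ratio of GFP to DsRed2 object intensity, acquired by 488 nm laser-scanning cytometry on HeLa lamin A-EGFP minigene reporter cells. Compound incubation 48 hrs at 37 °C in Opti-MEM with 2% FBS; DMSO 0.5% final.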

[1] = measured here: GFP splicing reporter channel
[2] = measured here: RFP viability control channel

Structure (SMILES)	AC50 [1]	AC50 [2]
Clc1ccc2c(c1)C(c1ccccc1Cl)=NCc1nnc(N3CCN(CCSc4ccccc4)CC3)n1-2	35.5 µM [falling, single point]	35.5 µM [falling, single point]
C=CCN1C(=O)NC(=O)C(CCc2ccncc2)(CCc2ccncc2)C1=O	0.794 µM [falling, full curve, poor fit]	0.00355 µM [falling, full curve, poor fit]
C=C1[C@@H](C)[C@H]2[C@H](Cc3ccccc3)NC(=O)[C@]23OC(=O)/C=C/[C@H](O)CCC[C@@H](C)C/C=C/[C@H]3[C@@H]1O	–	0.631 µM [falling, full curve, poor fit]
O=C(O)C1C2CCC(O2)C1C(=O)O (stereo not drawn)	0.0891 µM [falling, full curve, poor fit]	35.5 µM [falling, single point]
COC(=O)COc1cc(Cl)c(Cl)cc1Cl	11.2 µM [falling, partial curve, poor fit]	20 µM [falling, partial curve]
CCOC(=O)c1c(NC(NC(=O)CF)C(Cl)(Cl)Cl)sc2c1CCCC2 (stereo not drawn)	35.5 µM [rising, single point]	35.5 µM [rising, single point]
C=CCn1c(O)c(/C=C2/C=CC=N2)c(=O)[nH]c1=O	–	22.4 µM [rising, single point]
O=C(Oc1ccc2cc(Br)ccc2c1)N1CCCCCC1	20 µM [rising, partial curve]	35.5 µM [rising, single point]
CC1(C)CSC(Nc2ccc(F)c(Cl)c2)=N1	5.01 µM [rising, partial curve]	22.4 µM [rising, single point]
Cc1c(Cl)c(=O)oc2cc(OP(=O)(OCCCl)OCCCl)ccc12	0.01 µM [falling, full curve, poor fit]	35.5 µM [rising, single point]
Cc1cccc(C)c1NC(=O)CN(C)CC(=O)Nc1ccc(C#N)c(Cl)c1	1.78 µM [rising, partial curve, poor fit]	11.2 µM [rising, partial curve]
Cc1cc(C)cc(N2C(=O)NC(=O)/C(=C\C=C\c3ccco3)C2=O)c1	12.6 µM [rising, single point]	15.8 µM [rising, partial curve]
CCN1C(=O)c2ccccc2Sc2ccc(NC(=O)Nc3ccc(Br)c(C)c3)cc21	–	5.62 µM [rising, partial curve]

Exported in markdown: entries from further up

| Structure (SMILES) | AC50 [1] | AC50 [2] |
| --- | --- | --- |
| C=C1[C@@H](C)[C@H]2[C@H](Cc3ccccc3)NC(=O)[C@]23OC(=O)/C=C/[C@H](O)CCC[C@@H](C)C/C=C/[C@H]3[C@@H]1O | – | 0.631 µM [falling, full curve, poor fit] |
| O=C(O)C1C2CCC(O2)C1C(=O)O (stereo not drawn) | 0.0891 µM [falling, full curve, poor fit] | 35.5 µM [falling, single point] |
